The numbers were not newly measured in PMC6797721, “Unveil the Anticancer Potential of Limomene Based Therapeutic Deep Eutectic Solvents” (Scientific Reports, 2019), which cites them from elsewhere.

On the set-up of the data set: method as in PMID 26142248, doi:10.1016/j.fluid.2013.06.032. As to conditions: cited from earlier work.

For the molecule `CC(C)Cc1ccc(C(C)C(=O)O)cc1` (stereo not shown) [IBU, Ibuprofen], the Solubility in water result is listed as “≈ 21 mg L^-1”.
